No constants are given. Whether binding was seen depends on the method and setting. Binding seen in cells or lysates may run through a third protein. Some binding calls cover weakened binding; strength is not graded here. Where a sequence is shown, tags or fusion partners need not be part of it.
T1: leucyl-tRNA synthetase 2 with a hexa-histidine tag (LeuRS2-(His)6) (Arabidopsis thaliana) (UniProt F4I116)
T1 sequence: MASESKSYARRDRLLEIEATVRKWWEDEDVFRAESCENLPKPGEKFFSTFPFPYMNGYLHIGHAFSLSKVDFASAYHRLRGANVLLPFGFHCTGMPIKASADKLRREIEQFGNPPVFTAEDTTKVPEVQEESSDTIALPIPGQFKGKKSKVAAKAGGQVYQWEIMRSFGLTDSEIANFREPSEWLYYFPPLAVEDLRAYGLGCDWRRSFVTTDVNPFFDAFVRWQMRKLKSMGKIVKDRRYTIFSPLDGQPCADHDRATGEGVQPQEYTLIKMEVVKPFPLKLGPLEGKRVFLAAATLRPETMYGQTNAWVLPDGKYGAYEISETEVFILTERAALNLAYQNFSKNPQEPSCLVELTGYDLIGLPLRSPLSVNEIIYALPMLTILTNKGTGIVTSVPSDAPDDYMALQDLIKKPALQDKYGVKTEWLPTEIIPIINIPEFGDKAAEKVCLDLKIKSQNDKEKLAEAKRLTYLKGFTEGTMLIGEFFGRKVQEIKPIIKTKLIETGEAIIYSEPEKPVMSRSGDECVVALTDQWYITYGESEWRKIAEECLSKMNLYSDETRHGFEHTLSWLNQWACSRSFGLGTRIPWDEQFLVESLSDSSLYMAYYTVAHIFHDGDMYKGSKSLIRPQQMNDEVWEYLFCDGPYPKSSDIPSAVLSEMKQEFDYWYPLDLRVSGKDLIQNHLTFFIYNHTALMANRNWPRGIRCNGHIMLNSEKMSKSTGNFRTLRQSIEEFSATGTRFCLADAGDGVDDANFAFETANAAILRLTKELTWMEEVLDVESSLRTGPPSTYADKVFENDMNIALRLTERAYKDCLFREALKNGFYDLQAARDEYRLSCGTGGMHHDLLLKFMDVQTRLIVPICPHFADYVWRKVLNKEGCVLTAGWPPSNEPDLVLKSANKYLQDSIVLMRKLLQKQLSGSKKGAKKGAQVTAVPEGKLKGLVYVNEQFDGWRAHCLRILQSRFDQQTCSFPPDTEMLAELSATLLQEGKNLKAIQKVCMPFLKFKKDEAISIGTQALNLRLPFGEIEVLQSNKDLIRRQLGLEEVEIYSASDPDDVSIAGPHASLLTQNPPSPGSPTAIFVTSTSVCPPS


Assays:
[1] = target: T1, leucyl-tRNA synthetase 2 with a hexa-histidine tag (LeuRS2-(His)6) (Arabidopsis thaliana); assay: pull-down; His6-tagged precursor added to isolated Arabidopsis mitochondria, import at 8 °C to arrest translocation intermediates; mitochondria ruptured, OM–IM fraction from 20–38% sucrose gradient solubilised with maltoside; Ni-NTA agarose; co-purifying bands by SDS-PAGE, Coomassie or silver staining and protein sequencing; only the target purified
[2] = target: T1, leucyl-tRNA synthetase 2 with a hexa-histidine tag (LeuRS2-(His)6) (Arabidopsis thaliana); assay: cross-linking; DTNB-activated LeuRS2-(His)6 cross-linked to mitochondrial proteins during import; affinity purification of crosslink products from SDS-dissociated OM–IM fractions; ≈160 kDa product cleaved with 2-mercaptoethanol; only the target purified
[3] = target: T1, leucyl-tRNA synthetase 2 with a hexa-histidine tag (LeuRS2-(His)6) (Arabidopsis thaliana); assay: co-IP; co-immunoprecipitation from the DTNB crosslink product of LeuRS2-(His)6 (Figure S2); antibodies and conditions not shown; only the target purified

binding [1]	binding [2]	binding [3]	Binder
binds	binds		TIM8 (protein, UniProt Q9XGY4 1-77) MDPSMANNPELLQFLAQEKERAMVNEMVSKMTSVCWDKCITSAPGSKFSSSESSCLTHCAQRYMDMSMIIMKRFNSQ
binds	binds		TIM9 (protein, UniProt Q9XGX9 1-93) MDASMMAGLDGLPEEDKAKMASMIDQLQLRDSLRMYNSLVERCFVDCVDSFTRKSLQKQEETCVMRCAEKFLKHTMRVGMRFAELNQNAPTQD
binds	binds	binds	HP30-2 (hypothetical protein of 30 kDa) (protein, UniProt Q9FLT9 1-259) MGKDGEGDKKRETMAVMSLMKDQQNPIQQFQVKFKEIETGFKSWLSKQKLPVEAAVVTAMGGVQGAFIGGLMGTLSPEMPQAGIDPQAMASLKQTQALVGGPLVQARNFAAITGVNAGIACVMKRIRGKEDLESAVVAAFGSGVAYSLVSAGLQGQPMNAITTAAGFAVFQGVFFKLGERFSKPSVEDPYYTRGRSMLLKLGLEKYEKNFKKGLLADPTLPLLTDSALRDVSIPPGPRLLILDHIQRDPELKGKRGSRG
binds	binds		TIM10 (protein, UniProt Q9ZW33 1-83) MASPIPVGVTKEQAFSMAQTEMEYRVELFNKLAQTCFNKCVDKRYKEAELNMGENSCIDRCVSKYWQVNGMVGQLLSAGKPPV

From PMC8067559
